Publication PMC7835958
These are yes or no findings as the source states them, for the method shown. Some binding calls cover weakened binding; strength is not graded here.

By UniProt entry, the sequences of proteins in these tests, tags left out. Residues count along the entry.
UniProt Q7Z4V5, residues 469-549: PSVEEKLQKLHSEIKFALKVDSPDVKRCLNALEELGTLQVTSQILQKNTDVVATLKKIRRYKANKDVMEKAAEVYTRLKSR

B1: POGZ (amino acids 1117–1410) (domain or fragment, UniProt Q7Z3K3 1117-1410)
chain: LPLSMIVAIDEISLFLDTEVLSSDDRKENALQTVGTGEPWCDVVLAILADGTVLPTLVFYRGQMDQPANMPDSILLEAKESGYSDDEIMELWSTRVWQKHTACQRSKGMLVMDCHRTHLSEEVLAMLSASSTLPAVVPAGCSSKIQPLDVCIKRTVKNFLHKKWKEQAREMADTACDSDVLLQLVLVWLGEVLGVIGDCPELVQRSFLVASVLPGPDGNINSPTRNADMQEELIASLEEQLKLSGEHSESSTPRPRSSPEETIEPESLHQLFEGESETESFYGFEEADLDLMEI
B2: JPO2 (amino acids 1–130) (domain or fragment, UniProt Q96GN5 1-130)
chain: MELATRYQIPKEVADIFNAPSDDEEFVGFRDDVPMETLSSEESCDSFDSLESGKQQDVRFHSKYFTEELRRIFIEDTDSETEDFAGFTQSDLNGKTNPEVMVVESDLSDDGKASLVSEEEEDEEEDKATP

Target: HRP-2_(469–549) (human) (UniProt Q7Z4V5)
Experiment: NMR titration; chemical shift perturbations in the HRP-2 IBD backbone induced by binding of JPO2 (1–130) or POGZ (1117–1410); Figure S2; both purified

Binder | binding
B1 | binds
B2 | binds
